PubChem BioAssay AID1508597 | Cure First – 2020

- Assay: 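Genes whose silencing sensitises or protects ovarian cancer cells against rucaparib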 (primary screen)
- System: human ovarian carcinoma lines grown from tumours: OCI-P5x (papillary serous) and OCI-C5x (clear cell)
- Knock-down reagent: siRNA pool against human genes, 1.25 pmol siRNA per well
- Time to read-out: 72 h or 96 h, depending on the cell culture
- Conditions: rucaparib 20 µM (about IC30) or vehicle, present until read-out
- Measured: 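ATP luminescence measured at 72 or 96 h according to the culture, then normalised and expressed as percent viability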
- Direction: viability, normalised: higher = more viable cells remaining
- Call rule: 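Active when normalised viability falls below 80 percent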
- Calls: active = viability under 80%; inactive = viability 80% or more
In all, the deposit lists about 2,100 reagents; shown is an unselected part. 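Calls flag viability under 80% in either arm, not effects specific to rucaparib; the reference for percent is not stated.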 Not stated in the record: the 100% reference.

With TNRC6A (trinucleotide repeat containing adaptor 6A), rucaparib or vehicle Rucaparib, cell line OCI-C5x (clear cell), technical replicate 1, what was measured?
viability, normalised (%): 70.4; outcome: active

With TNRC6A (trinucleotide repeat containing adaptor 6A), rucaparib or vehicle Rucaparib, cell line OCI-C5x (clear cell), technical replicate 2, what was measured?
viability, normalised (%): 76.7; outcome: active

For TNRC6A (trinucleotide repeat containing adaptor 6A), rucaparib or vehicle Rucaparib, cell line OCI-C5x (clear cell), technical replicate 3, what was measured?
viability, normalised (%): 71.1; outcome: active

What did the screen give for TNRC6A (trinucleotide repeat containing adaptor 6A), rucaparib or vehicle Rucaparib, cell line OCI-P5x (serous), technical replicate 1?
viability, normalised (%): 62.8; outcome: active

With TNRC6A (trinucleotide repeat containing adaptor 6A), rucaparib or vehicle Rucaparib, cell line OCI-P5x (serous), technical replicate 2, what does the deposit list?
viability, normalised (%): 66; outcome: active

Which result is listed for TNRC6A (trinucleotide repeat containing adaptor 6A), rucaparib or vehicle Rucaparib, cell line OCI-P5x (serous), technical replicate 3?
viability, normalised (%): 75; outcome: active

What did the screen give for TNRC6A (trinucleotide repeat containing adaptor 6A), rucaparib or vehicle Vehicle, cell line OCI-C5x (clear cell), technical replicate 1?
viability, normalised (%): 69.5; outcome: active

How did the screen score TNRC6A (trinucleotide repeat containing adaptor 6A), rucaparib or vehicle Vehicle, cell line OCI-C5x (clear cell), technical replicate 2?
viability, normalised (%): 65.3; outcome: active

With TNRC6A (trinucleotide repeat containing adaptor 6A), rucaparib or vehicle Vehicle, cell line OCI-C5x (clear cell), technical replicate 3, how do the results read?
viability, normalised (%): 67.4; outcome: active

With TNRC6A (trinucleotide repeat containing adaptor 6A), rucaparib or vehicle Vehicle, cell line OCI-P5x (serous), technical replicate 1, what was measured?
viability, normalised (%): 83.2; outcome: inactive

With TNRC6A (trinucleotide repeat containing adaptor 6A), rucaparib or vehicle Vehicle, cell line OCI-P5x (serous), technical replicate 2, how do the results read?
viability, normalised (%): 70.5; outcome: active

With TNRC6A (trinucleotide repeat containing adaptor 6A), rucaparib or vehicle Vehicle, cell line OCI-P5x (serous), technical replicate 3, what was measured?
viability, normalised (%): 89.7; outcome: inactive

What did the screen give for RPS6KA4 (ribosomal protein S6 kinase A4), rucaparib or vehicle Rucaparib, cell line OCI-C5x (clear cell), technical replicate 1?
viability, normalised (%): 58.3; outcome: active

What is on record for RPS6KA4 (ribosomal protein S6 kinase A4), rucaparib or vehicle Rucaparib, cell line OCI-C5x (clear cell), technical replicate 2?
viability, normalised (%): 77.9; outcome: active

With RPS6KA4 (ribosomal protein S6 kinase A4), rucaparib or vehicle Rucaparib, cell line OCI-C5x (clear cell), technical replicate 3, how do the results read?
viability, normalised (%): 56.6; outcome: active

What did the screen give for RPS6KA4 (ribosomal protein S6 kinase A4), rucaparib or vehicle Rucaparib, cell line OCI-P5x (serous), technical replicate 1?
viability, normalised (%): 65; outcome: active

How did the screen score RPS6KA4 (ribosomal protein S6 kinase A4), rucaparib or vehicle Rucaparib, cell line OCI-P5x (serous), technical replicate 2?
viability, normalised (%): 78.2; outcome: active

For RPS6KA4 (ribosomal protein S6 kinase A4), rucaparib or vehicle Rucaparib, cell line OCI-P5x (serous), technical replicate 3, what does the deposit list?
viability, normalised (%): 71.5; outcome: active

With RPS6KA4 (ribosomal protein S6 kinase A4), rucaparib or vehicle Vehicle, cell line OCI-C5x (clear cell), technical replicate 1, what was measured?
viability, normalised (%): 87; outcome: inactive

How did the screen score RPS6KA4 (ribosomal protein S6 kinase A4), rucaparib or vehicle Vehicle, cell line OCI-C5x (clear cell), technical replicate 2?
viability, normalised (%): 70.5; outcome: active

With RPS6KA4 (ribosomal protein S6 kinase A4), rucaparib or vehicle Vehicle, cell line OCI-C5x (clear cell), technical replicate 3, how do the results read?
viability, normalised (%): 59.8; outcome: active

What is on record for RPS6KA4 (ribosomal protein S6 kinase A4), rucaparib or vehicle Vehicle, cell line OCI-P5x (serous), technical replicate 1?
viability, normalised (%): 86.4; outcome: inactive

For RPS6KA4 (ribosomal protein S6 kinase A4), rucaparib or vehicle Vehicle, cell line OCI-P5x (serous), technical replicate 2, what was measured?
viability, normalised (%): 66.6; outcome: active

For RPS6KA4 (ribosomal protein S6 kinase A4), rucaparib or vehicle Vehicle, cell line OCI-P5x (serous), technical replicate 3, how do the results read?
viability, normalised (%): 96.6; outcome: inactive

How did the screen score DDX47 (DEAD-box helicase 47), rucaparib or vehicle Rucaparib, cell line OCI-C5x (clear cell), technical replicate 1?
viability, normalised (%): 57.7; outcome: active

With DDX47 (DEAD-box helicase 47), rucaparib or vehicle Rucaparib, cell line OCI-C5x (clear cell), technical replicate 2, what was measured?
viability, normalised (%): 42.6; outcome: active

For DDX47 (DEAD-box helicase 47), rucaparib or vehicle Rucaparib, cell line OCI-C5x (clear cell), technical replicate 3, how do the results read?
viability, normalised (%): 46.7; outcome: active

With DDX47 (DEAD-box helicase 47), rucaparib or vehicle Rucaparib, cell line OCI-P5x (serous), technical replicate 1, how do the results read?
viability, normalised (%): 57.8; outcome: active

Which result is listed for DDX47 (DEAD-box helicase 47), rucaparib or vehicle Rucaparib, cell line OCI-P5x (serous), technical replicate 2?
viability, normalised (%): 62.4; outcome: active

For DDX47 (DEAD-box helicase 47), rucaparib or vehicle Rucaparib, cell line OCI-P5x (serous), technical replicate 3, how do the results read?
viability, normalised (%): 71.4; outcome: active

For DDX47 (DEAD-box helicase 47), rucaparib or vehicle Vehicle, cell line OCI-C5x (clear cell), technical replicate 1, how do the results read?
viability, normalised (%): 34.7; outcome: active

What did the screen give for DDX47 (DEAD-box helicase 47), rucaparib or vehicle Vehicle, cell line OCI-C5x (clear cell), technical replicate 2?
viability, normalised (%): 37.4; outcome: active

For DDX47 (DEAD-box helicase 47), rucaparib or vehicle Vehicle, cell line OCI-C5x (clear cell), technical replicate 3, what was measured?
viability, normalised (%): 47.5; outcome: active

With DDX47 (DEAD-box helicase 47), rucaparib or vehicle Vehicle, cell line OCI-P5x (serous), technical replicate 1, what does the deposit list?
viability, normalised (%): 51.3; outcome: active

With DDX47 (DEAD-box helicase 47), rucaparib or vehicle Vehicle, cell line OCI-P5x (serous), technical replicate 2, how do the results read?
viability, normalised (%): 54.1; outcome: active

For DDX47 (DEAD-box helicase 47), rucaparib or vehicle Vehicle, cell line OCI-P5x (serous), technical replicate 3, how do the results read?
viability, normalised (%): 64.1; outcome: active

With MLH1 (mutL homolog 1), rucaparib or vehicle Rucaparib, cell line OCI-C5x (clear cell), technical replicate 1, what does the deposit list?
viability, normalised (%): 60; outcome: active

For MLH1 (mutL homolog 1), rucaparib or vehicle Rucaparib, cell line OCI-C5x (clear cell), technical replicate 2, how do the results read?
viability, normalised (%): 48.8; outcome: active

For MLH1 (mutL homolog 1), rucaparib or vehicle Rucaparib, cell line OCI-C5x (clear cell), technical replicate 3, what was measured?
viability, normalised (%): 48.2; outcome: active

How did the screen score MLH1 (mutL homolog 1), rucaparib or vehicle Rucaparib, cell line OCI-P5x (serous), technical replicate 1?
viability, normalised (%): 56.8; outcome: active

Which result is listed for MLH1 (mutL homolog 1), rucaparib or vehicle Rucaparib, cell line OCI-P5x (serous), technical replicate 2?
viability, normalised (%): 49.3; outcome: active

With MLH1 (mutL homolog 1), rucaparib or vehicle Rucaparib, cell line OCI-P5x (serous), technical replicate 3, what was measured?
viability, normalised (%): 67; outcome: active

Which result is listed for MLH1 (mutL homolog 1), rucaparib or vehicle Vehicle, cell line OCI-C5x (clear cell), technical replicate 1?
viability, normalised (%): 47; outcome: active

With MLH1 (mutL homolog 1), rucaparib or vehicle Vehicle, cell line OCI-C5x (clear cell), technical replicate 2, what was measured?
viability, normalised (%): 55.6; outcome: active

With MLH1 (mutL homolog 1), rucaparib or vehicle Vehicle, cell line OCI-C5x (clear cell), technical replicate 3, what was measured?
viability, normalised (%): 61.7; outcome: active

For MLH1 (mutL homolog 1), rucaparib or vehicle Vehicle, cell line OCI-P5x (serous), technical replicate 1, what was measured?
viability, normalised (%): 69.2; outcome: active

For MLH1 (mutL homolog 1), rucaparib or vehicle Vehicle, cell line OCI-P5x (serous), technical replicate 2, how do the results read?
viability, normalised (%): 57.2; outcome: active

How did the screen score MLH1 (mutL homolog 1), rucaparib or vehicle Vehicle, cell line OCI-P5x (serous), technical replicate 3?
viability, normalised (%): 70; outcome: active

Single entries from above:
DDX47 (DEAD-box helicase 47), rucaparib or vehicle Rucaparib, cell line OCI-P5x (serous), technical replicate 2, outcome → active
Entry for DDX47 (DEAD-box helicase 47), rucaparib or vehicle Vehicle, cell line OCI-P5x (serous), technical replicate 3 in “outcome”: active
DDX47 (DEAD-box helicase 47), rucaparib or vehicle Rucaparib, cell line OCI-P5x (serous), technical replicate 1, outcome → active
